# Results published in PMC6706418, “Systemically Administered Plant Recombinant Holo-Intrinsic Factor Targets the Liver and is not Affected by Endogenous B12 levels” (Scientific Reports, 2019).
# Chains of the proteins cited; added tags and fusions are not shown. Residues count along the entry.
# UniProt O70244, residues 33-3623: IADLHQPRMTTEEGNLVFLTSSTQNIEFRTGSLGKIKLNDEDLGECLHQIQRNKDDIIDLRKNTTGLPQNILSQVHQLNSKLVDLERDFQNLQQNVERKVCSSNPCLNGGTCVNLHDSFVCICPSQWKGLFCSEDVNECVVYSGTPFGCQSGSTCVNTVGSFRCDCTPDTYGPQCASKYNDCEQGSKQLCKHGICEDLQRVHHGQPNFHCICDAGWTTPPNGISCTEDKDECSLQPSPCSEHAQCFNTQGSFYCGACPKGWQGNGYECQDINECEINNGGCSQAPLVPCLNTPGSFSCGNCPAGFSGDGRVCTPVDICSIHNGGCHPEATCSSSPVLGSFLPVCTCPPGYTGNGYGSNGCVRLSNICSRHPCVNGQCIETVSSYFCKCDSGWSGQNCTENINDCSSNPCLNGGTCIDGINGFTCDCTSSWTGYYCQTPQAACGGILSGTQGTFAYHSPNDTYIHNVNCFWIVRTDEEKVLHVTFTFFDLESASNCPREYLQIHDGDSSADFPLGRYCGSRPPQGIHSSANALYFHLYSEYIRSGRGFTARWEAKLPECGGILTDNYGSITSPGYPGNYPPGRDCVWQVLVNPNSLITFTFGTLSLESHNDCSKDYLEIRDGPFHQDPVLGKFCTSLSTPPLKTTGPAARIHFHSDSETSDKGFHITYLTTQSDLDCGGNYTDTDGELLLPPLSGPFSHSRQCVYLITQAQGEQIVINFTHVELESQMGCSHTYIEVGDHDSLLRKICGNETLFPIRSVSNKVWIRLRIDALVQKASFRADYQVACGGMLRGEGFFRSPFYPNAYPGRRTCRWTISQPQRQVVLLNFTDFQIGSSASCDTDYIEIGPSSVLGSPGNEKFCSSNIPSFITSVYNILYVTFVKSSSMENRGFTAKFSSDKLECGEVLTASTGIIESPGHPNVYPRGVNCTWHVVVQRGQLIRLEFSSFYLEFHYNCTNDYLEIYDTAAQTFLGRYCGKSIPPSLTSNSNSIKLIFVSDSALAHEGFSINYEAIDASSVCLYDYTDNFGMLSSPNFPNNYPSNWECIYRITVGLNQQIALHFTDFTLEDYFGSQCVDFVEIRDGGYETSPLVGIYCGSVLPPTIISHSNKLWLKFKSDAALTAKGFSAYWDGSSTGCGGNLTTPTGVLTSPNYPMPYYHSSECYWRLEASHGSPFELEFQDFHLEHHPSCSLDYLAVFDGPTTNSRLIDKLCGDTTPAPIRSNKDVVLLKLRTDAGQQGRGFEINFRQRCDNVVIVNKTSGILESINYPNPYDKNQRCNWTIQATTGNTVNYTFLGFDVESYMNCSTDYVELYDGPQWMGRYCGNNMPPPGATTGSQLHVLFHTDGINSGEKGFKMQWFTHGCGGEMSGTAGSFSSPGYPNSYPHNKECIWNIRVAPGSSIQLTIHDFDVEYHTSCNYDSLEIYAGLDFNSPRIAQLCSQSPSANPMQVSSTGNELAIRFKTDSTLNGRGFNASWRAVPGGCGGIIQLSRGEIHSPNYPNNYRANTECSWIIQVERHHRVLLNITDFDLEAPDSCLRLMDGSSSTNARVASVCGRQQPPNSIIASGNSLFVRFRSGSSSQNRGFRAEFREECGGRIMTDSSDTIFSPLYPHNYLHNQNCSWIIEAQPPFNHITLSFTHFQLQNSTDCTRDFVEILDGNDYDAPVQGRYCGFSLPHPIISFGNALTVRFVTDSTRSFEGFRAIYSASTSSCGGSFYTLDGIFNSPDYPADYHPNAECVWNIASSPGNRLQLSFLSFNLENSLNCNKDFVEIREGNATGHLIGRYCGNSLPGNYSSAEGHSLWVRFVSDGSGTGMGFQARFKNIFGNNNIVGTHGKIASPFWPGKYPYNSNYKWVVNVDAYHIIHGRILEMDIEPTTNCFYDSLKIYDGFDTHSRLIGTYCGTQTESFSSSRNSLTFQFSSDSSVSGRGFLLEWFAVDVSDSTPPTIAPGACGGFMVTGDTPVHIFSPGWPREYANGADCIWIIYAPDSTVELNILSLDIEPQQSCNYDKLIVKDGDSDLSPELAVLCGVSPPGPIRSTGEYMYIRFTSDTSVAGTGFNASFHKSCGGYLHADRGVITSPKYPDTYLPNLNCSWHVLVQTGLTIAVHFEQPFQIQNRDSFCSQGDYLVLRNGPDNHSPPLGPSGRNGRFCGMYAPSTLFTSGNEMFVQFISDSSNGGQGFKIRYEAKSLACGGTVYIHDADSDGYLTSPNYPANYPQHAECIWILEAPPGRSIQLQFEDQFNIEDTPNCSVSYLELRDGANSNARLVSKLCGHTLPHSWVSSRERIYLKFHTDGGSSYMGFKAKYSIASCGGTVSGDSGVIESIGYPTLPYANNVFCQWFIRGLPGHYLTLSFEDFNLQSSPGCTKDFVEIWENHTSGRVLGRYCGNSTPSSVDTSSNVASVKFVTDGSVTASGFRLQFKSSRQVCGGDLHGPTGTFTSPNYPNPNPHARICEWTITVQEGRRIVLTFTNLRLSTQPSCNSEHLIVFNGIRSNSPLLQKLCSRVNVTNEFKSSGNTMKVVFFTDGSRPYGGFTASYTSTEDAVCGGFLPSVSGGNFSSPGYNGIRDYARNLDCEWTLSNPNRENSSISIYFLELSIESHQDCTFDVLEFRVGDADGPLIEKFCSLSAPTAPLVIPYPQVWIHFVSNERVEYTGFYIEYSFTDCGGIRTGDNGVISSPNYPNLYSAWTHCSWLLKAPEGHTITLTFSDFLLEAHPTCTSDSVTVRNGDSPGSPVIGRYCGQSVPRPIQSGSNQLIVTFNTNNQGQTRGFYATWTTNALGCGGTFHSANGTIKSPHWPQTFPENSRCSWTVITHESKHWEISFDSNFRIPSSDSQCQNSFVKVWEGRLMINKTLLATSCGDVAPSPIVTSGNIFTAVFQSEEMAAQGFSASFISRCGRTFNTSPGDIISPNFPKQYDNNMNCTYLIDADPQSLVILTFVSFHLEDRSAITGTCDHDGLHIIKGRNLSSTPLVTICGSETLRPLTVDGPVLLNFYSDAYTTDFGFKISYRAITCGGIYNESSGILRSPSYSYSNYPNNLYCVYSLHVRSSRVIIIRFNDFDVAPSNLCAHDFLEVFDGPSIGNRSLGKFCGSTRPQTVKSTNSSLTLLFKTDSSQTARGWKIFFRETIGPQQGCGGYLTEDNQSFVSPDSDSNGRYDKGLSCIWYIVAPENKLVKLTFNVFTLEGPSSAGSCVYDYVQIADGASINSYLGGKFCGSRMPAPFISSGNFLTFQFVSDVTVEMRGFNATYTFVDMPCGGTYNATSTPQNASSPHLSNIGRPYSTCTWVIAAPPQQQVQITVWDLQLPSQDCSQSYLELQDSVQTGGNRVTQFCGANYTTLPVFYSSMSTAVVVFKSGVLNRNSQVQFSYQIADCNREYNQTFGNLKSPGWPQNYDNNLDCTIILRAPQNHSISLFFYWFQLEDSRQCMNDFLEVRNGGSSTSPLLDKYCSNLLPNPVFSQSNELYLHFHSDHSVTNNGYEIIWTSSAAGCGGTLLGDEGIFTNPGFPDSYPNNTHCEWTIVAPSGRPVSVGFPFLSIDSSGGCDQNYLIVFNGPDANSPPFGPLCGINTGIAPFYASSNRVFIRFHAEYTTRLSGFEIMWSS
# UniProt P27352, residues 19-417: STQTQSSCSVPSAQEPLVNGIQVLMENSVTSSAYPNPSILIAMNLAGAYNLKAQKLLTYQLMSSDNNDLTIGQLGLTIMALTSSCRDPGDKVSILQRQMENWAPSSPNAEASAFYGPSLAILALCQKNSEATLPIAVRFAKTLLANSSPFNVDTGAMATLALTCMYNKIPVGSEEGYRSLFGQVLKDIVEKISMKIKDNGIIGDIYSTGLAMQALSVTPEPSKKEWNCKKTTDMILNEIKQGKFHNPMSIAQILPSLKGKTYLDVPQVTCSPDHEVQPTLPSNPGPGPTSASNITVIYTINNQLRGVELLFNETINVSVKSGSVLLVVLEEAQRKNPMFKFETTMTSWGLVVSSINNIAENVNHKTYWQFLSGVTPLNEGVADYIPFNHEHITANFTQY
# Results are given in words; binding and its absence hold for the method and conditions named. Some results given as binding are weak or reduced against the parent protein; the word gives no strength.
# What was measured:
# [1] = molecular target: cubilin (CUBN) on BN16 (Brown Norway rat yolk) cells (rat (endogenous in BN16)) (UniProt O70244); test: flow cytometry on cells; adherent cells incubated with 1 mL of IF-B12-Cy5 (200 nM) in HBSS for 1 h at 37 °C (BN16 also at 4 °C; J774A.1 also with 2 mg/mL mannan), washed three times; excitation 640 nm, detection 660 ± 20 nm; only the binder purified
# [2] = molecular target: T1, mannose receptor CD206 on J774A.1 macrophage cells (mouse (endogenous in J774A.1)) (UniProt Q61830); test: as above
# T1 sequence: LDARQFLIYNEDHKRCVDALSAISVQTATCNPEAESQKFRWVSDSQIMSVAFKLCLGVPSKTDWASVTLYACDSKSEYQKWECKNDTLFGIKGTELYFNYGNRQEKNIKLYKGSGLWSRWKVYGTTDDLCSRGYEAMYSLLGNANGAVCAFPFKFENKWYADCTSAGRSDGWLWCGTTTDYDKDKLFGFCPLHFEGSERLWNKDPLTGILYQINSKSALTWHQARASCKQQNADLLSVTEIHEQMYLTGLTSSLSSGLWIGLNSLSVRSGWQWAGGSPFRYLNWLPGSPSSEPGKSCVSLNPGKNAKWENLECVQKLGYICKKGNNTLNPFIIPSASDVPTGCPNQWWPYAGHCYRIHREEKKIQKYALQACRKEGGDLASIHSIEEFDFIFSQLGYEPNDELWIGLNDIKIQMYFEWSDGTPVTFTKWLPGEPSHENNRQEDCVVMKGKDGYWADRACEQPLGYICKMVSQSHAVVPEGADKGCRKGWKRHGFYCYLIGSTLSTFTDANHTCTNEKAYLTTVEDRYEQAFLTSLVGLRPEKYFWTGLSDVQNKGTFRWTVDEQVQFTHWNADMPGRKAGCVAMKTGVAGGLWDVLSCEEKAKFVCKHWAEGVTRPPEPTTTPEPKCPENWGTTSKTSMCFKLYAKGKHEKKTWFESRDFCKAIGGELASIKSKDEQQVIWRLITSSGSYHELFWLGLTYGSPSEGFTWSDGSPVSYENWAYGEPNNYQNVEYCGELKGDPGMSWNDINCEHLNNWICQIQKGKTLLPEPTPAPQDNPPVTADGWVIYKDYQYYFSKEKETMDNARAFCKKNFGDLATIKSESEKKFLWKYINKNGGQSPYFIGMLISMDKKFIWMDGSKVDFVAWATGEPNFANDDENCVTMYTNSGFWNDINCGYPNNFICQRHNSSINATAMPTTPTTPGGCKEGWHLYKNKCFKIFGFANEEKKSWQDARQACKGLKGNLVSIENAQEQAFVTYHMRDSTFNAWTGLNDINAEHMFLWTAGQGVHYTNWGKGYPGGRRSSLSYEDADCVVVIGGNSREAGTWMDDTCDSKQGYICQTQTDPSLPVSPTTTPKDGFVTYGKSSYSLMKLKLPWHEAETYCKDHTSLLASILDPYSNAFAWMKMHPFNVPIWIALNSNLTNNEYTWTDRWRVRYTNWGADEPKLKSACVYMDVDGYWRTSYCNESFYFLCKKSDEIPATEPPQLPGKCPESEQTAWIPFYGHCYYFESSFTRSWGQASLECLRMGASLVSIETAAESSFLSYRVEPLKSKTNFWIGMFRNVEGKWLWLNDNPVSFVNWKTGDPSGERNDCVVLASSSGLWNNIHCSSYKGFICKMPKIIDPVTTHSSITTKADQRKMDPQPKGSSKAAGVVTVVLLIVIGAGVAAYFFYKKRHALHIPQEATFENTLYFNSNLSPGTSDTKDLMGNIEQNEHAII
substance,measurement,setting,value
"human recombinant gastric intrinsic factor produced in Arabidopsis thaliana, bound to B12-Cy5 (IF-B12-Cy5) (from UniProt P27352 19-417)",binding,[1],binds
same,binding,[2],binds
